{"source": "PubChem BioAssay AID720505 (Drosophila RNAi Screening Center, 2013)", "assay": "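Fly regulators or components of the CRAC channel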 (primary screen)", "system": "Drosophila S2R+ cells", "knock-down reagent": "long dsRNA against Drosophila genes", "treatment": "thapsigargin (2 µM) in calcium-free buffer to empty internal stores, then 2 mM calcium added back", "detection": "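Stores emptied by 2 µM thapsigargin without calcium, then 2 mM calcium re-added; fluo-4 fluorescence followed by FLIPR in 384-well plates, per-well averaged endpoint, raw; two screen passes, some wells retested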", "scale": "calcium signal: higher = more calcium entry after store depletion", "active means": "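About 1500 genes called as lowering calcium entry, by varying amounts, judged against per-plate control wells with STIM1 as positive and Rho1 as negative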", "meaning of the calls": "active = called as lowering calcium entry; inactive = not called", "note": "The deposit covers about 20,000 reagents; below is an unselected part of those with a known target gene and a result. Over the whole deposit, about 2,100 (10%) are marked active. 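Raw plate signals without normalisation; calls rest on control-based scores that were not deposited; replicate 2 separates called from uncalled poorly.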 The numbers tell different reagents against one gene apart. Not stated in the record: the amount of reagent, the time to read-out."}
{"gene knocked down":"Leash","reagent no.":1,"calcium signal, replicate 1":183,"calcium signal, replicate 2":87.7,"Call":"inactive"}
{"gene knocked down":"CG7203","reagent no.":1,"calcium signal, replicate 1":112,"calcium signal, replicate 2":88.6,"Call":"inactive"}
{"gene knocked down":"Acsf2","reagent no.":1,"calcium signal, replicate 1":65.8,"calcium signal, replicate 2":172,"Call":"active"}
{"gene knocked down":"Gpxl","reagent no.":1,"calcium signal, replicate 1":124,"calcium signal, replicate 2":141,"Call":"inactive"}
{"gene knocked down":"CG43308","reagent no.":1,"calcium signal, replicate 1":63.7,"calcium signal, replicate 2":94.1,"Call":"inactive"}

Entries above with an active call, once more:
{"gene knocked down":"Acsf2","reagent no.":1,"calcium signal, replicate 1":65.8,"calcium signal, replicate 2":172,"Call":"active"}

Continued:
{"gene knocked down":"gcm2","reagent no.":1,"calcium signal, replicate 1":181,"calcium signal, replicate 2":155,"Call":"inactive"}
{"gene knocked down":"y","reagent no.":1,"calcium signal, replicate 1":91.3,"calcium signal, replicate 2":119,"Call":"inactive"}
{"gene knocked down":"PolH","reagent no.":1,"calcium signal, replicate 1":120,"calcium signal, replicate 2":107,"Call":"inactive"}
{"gene knocked down":"CR31958","reagent no.":1,"calcium signal, replicate 1":168,"calcium signal, replicate 2":98,"Call":"inactive"}
{"gene knocked down":"CR31958","reagent no.":2,"calcium signal, replicate 1":55.5,"calcium signal, replicate 2":142,"Call":"active"}
{"gene knocked down":"CG14683","reagent no.":1,"calcium signal, replicate 1":120,"calcium signal, replicate 2":178,"Call":"inactive"}
{"gene knocked down":"mon2","reagent no.":1,"calcium signal, replicate 1":151,"calcium signal, replicate 2":154,"Call":"inactive"}
